# Earlier results in US8580122B2, “Hybrid chemical/mechanical method and apparatus for inactivating and removing pharmaceuticals and other contaminants from water” (priority 2004, dated 2013).
# Where two headings read alike, the source gives them in different places.
# Conditions: cited from earlier work
Structure (SMILES),"soil concentration after composting (full-scale, after 14 weeks, from 210 mg kg^−1)","soil concentration after composting (full-scale, in 6 weeks, from 1160 mg kg^−1)","soil concentration after composting (pilot scale, mesophilic, within 20 weeks, from 5100 mg kg^−1)"
Cc1ccccc1-n1c(C)nc2ccccc2c1=O [Methaqualone],< 100 mg/kg,,
CCCN(CCC)S(=O)(=O)c1ccc(C(=O)O)cc1 [Probenecid],,100 mg/kg,< 10 mg/kg
